Measurements: PMC4980451
No constants are given. Whether binding was seen depends on the method and setting. Binding seen in cells or lysates may run through a third protein. Some results given as binding are weak or reduced against the parent protein; the word gives no strength.

By UniProt entry, the sequences of proteins in these tests, tags left out.
UniProt O08586: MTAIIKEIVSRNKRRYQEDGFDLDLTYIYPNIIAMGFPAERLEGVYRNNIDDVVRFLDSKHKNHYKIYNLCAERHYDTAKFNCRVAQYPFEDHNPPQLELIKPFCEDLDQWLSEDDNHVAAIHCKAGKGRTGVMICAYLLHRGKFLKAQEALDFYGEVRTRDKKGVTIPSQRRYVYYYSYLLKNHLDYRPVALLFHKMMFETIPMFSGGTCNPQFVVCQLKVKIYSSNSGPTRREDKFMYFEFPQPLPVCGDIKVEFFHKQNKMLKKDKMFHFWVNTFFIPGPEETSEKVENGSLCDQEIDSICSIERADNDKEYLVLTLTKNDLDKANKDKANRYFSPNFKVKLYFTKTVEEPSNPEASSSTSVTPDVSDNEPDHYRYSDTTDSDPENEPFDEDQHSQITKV

Molecular target: Pten (endogenous, Pten+/+ MEFs) (mouse (endogenous in MEFs)) (UniProt O08586)
Experiment: co-IP; endogenous proteins; cell lysates (HeLa; Pten+/+ MEFs; synchronized samples 6-10 h after release from double thymidine block) immunoprecipitated with an anti-PTEN monoclonal antibody, EG5 detected by Western blotting

B1: EG5 (endogenous, Pten+/+ MEFs) (protein, UniProt Q6P9P6 1-1052)
chain: MASQPSSLKKKEEKGRNIQVVVRCRPFNLAERKANAHSVVECDHARKEVSVRTAGLTDKTSKKTYTFDMVFGASTKQIDVYRSVVCPILDEVIMGYNCTIFAYGQTGTGKTFTMEGERSPNEVYTWEEDPLAGIIPRTLHQIFEKLTDNGTEFSVKVSLLEIYNEELFDLLSPSSDVSERLQMFDDPRNKRGVIIKGLEEITVHNKDEVYQILEKGAAKRTTAATLMNAYSSRSHSVFSVTIHMKETTIDGEELVKIGKLNLVDLAGSENIGRSGAVDKRAREAGNINQSLLTLGRVITALVERTPHIPYRESKLTRILQDSLGGRTRTSIIATISPASFNLEETLSTLEYAHRAKNIMNKPEVNQKLTKKALIKEYTEEIERLKRDLAAAREKNGVYISEESFRAMNGKVTVQEEQIVELVEKIAVLEEELSKATELFMDSKNELDQCKSDLQTKTQELETTQKHLQETKLQLVKEEYVSSALERTEKTLHDTASKLLNTVKETTRAVSGLHSKLDRKRAIDEHNAEAQESFGKNLNSLFNNMEELIKDGSAKQKAMLDVHKTLFGNLMSSSVSALDTITTTALESLVSIPENVSARVSQISDMILEEQSLAAQSKSVLQGLIDELVTDLFTSLKTIVAPSVVSILNINKQLQHIFRASSTVAEKVEDQKREIDSFLSILCNNLHELRENTVSSLVESQKLCGDLTEDLKTIKETHSQELCQLSSSWAERFCALEKKYENIQKPLNSIQENTELRSTDIINKTTVHSKKILAESDGLLQELRHFNQEGTQLVEESVGHCSSLNSNLETVSQEITQKCGTLNTSTVHFSDQWASCLSKRKEELENLMEFVNGCCKASSSEITKKVREQSAAVANQHSSFVAQMTSDEESCKAGSLELDKTIKTGLTKLNCFLKQDLKLDIPTGMTPERKKYLYPTTLVRTEPREQLLDQLQKKQPPMMLNSSEASKETSQDMDEEREALEQCTEELVSPETTEHPSADCSSSRGLPFFQRKKPHGKDKENRGLNPVEKYKVEEASDLSISKSRLPLHTSINL
binding: binds
